In PubChem BioAssay AID248 (DTP/NCI, 2004):
The list does not hold the whole screen: it is rich in T/C values a quarter to a half above the control, in often repeated tests (any T/C) and in doses without a T/C. Further doses and runs are listed elsewhere. T/C gives the treated animals as a percentage of the vehicle group. Some doses have a count of surviving animals in place of a T/C: the source holds a T/C of zero for them, seemingly a mark for toxic or unscored doses. Some doses without a T/C left all or most animals alive at the check, yet need not have been tolerated: survival well below the control is almost never listed, so the zero probably covers shortened survival too. Counts of survivors are from the toxicity check (mostly the fifth day) where no day follows; animals may have died later. Schedules are NCI's codes, read here as Q, the interval in days (D) or hours (H), X, the number of doses. Some schedule codes hold Z or #, which are not explained here. Some entries hold several experiments; their values stand side by side, smallest first. For survival time, this PubChem deposit counts one and a half times the control or more as active, and values a quarter to a half above the control carry no call in these data; other NCI protocols may use other cut-offs.

Tested on: L1210 leukemia ip in BDF1 mice, survival T/C
Assay: NCI In Vivo Anticancer Drug Screen. Data for tumor model L1210 Leukemia (intraperitoneal) in B6D2F1 (BDF1) mice
Conditions: T/C endpoint: mean survival time, higher T/C = longer survival
[1] = dose: 400.0 mg/kg/injection, schedule: Q04DX003 (ip), vehicle: saline
[2] = dose: 400.0 mg/kg/injection, schedule: Q04DX003 (ip), vehicle: Klucel (hydroxypropylcellulose) (HPC)
[3] = dose: 400.0 mg/kg/injection, schedule: Q01DX001 (ip), vehicle: other
[4] = dose: 400.0 mg/kg/injection, schedule: Q01DX009 (ip), vehicle: Klucel (hydroxypropylcellulose) (HPC)
[5] = dose: 100.0 mg/kg/injection, schedule: Q01DX009 (ip), vehicle: Klucel (hydroxypropylcellulose) (HPC)

With `Nc1ncnc2c1c(-c1nn[nH]n1)cn2C1OC(CO)C(O)C1O` (configuration not stated) the T/C (dose: 12.5 mg/kg/injection, schedule: Q01DX009 (ip), vehicle: saline) was 127 % of control, the T/C (dose: 25.0 mg/kg/injection, schedule: Q01DX005 (ip), vehicle: saline) was 128 % of control and the T/C (dose: 25.0 mg/kg/injection, schedule: Q01DX009 (ip), vehicle: saline) was 128 and 134 % of control. The survivor count (dose: 100.0 mg/kg/injection, schedule: Q01DX005 (ip), vehicle: saline) was 3 of 6 and the survivor count (dose: 200.0 mg/kg/injection, schedule: Q01DX005 (ip), vehicle: saline) was 0 of 6.

`COc1c(C(=O)Nc2ccc(C3=NCCN3)cc2)cccc1C(=O)Nc1ccc(C2=NCCN2)cc1` was tested, and the survivor count (dose: 60.0 mg/kg/injection, schedule: Q01DX Z (ip), vehicle: saline) was 0 of 6 and the survivor count (dose: 120.0 mg/kg/injection, schedule: Q01DX Z (ip), vehicle: saline) was 0 of 6.

`CC1(C)N=C(N)N=C(N)N1NC(=O)c1cccc(Cl)c1` was tested, and the survivor count [1] was 5 of 6.

For `CN(C)c1ccc2nc(C(=O)O)c(=O)n(C)c2c1`, the survivor count (dose: 400.0 mg/kg/injection, schedule: Q01DX001 (ip), vehicle: Klucel (hydroxypropylcellulose) (HPC)) was 3 of 3.

For `COc1ccccc1N1C(=O)C2C(C1=O)C1(Cl)C(Cl)=C(Cl)C2(Cl)C1(Cl)Cl` (configuration not stated), the survivor count (dose: 300.0 mg/kg/injection, schedule: Q01DX009 (ip), vehicle: Klucel (hydroxypropylcellulose) (HPC)) was 1 of 6 and the survivor count [2] was 3 of 6.

`NCc1ccc(F)cc1` was tested, and the survivor count [1] was 2 of 6.

For `CC([NH-])=O.CC([NH-])=O.[Pt+2]`, the survivor count (dose: 300.0 mg/kg/injection, schedule: Q01DX009 (ip), vehicle: water) was 0 of 6 and the survivor count (dose: 400.0 mg/kg/injection, schedule: Q04DX003 (ip), vehicle: water) was 2 of 6.

`CCOC(=O)C(C(=N)C#N)C(C)=O` (configuration not stated) was tested, and the survivor count (dose: 25.0 mg/kg/injection, schedule: Q04DX003 (ip), vehicle: saline with Tween-80) was 6 of 6, the survivor count (dose: 100.0 mg/kg/injection, schedule: Q04DX003 (ip), vehicle: saline with Tween-80) was 6 of 6 and the survivor count (dose: 200.0 mg/kg/injection, schedule: Q04DX003 (ip), vehicle: saline with Tween-80) was 4 of 6. For the same molecule, the survivor count (dose: 400.0 mg/kg/injection, schedule: Q04DX003 (ip), vehicle: saline with Tween-80) was 0 of 6.

In the case of `COC(=O)C1=COC(C)C2CN3CCc4c([nH]c5cc(OC)ccc45)C3CC12` (configuration not stated), the survivor count (dose: 87.5 mg/kg/injection, schedule: Q01DX Z (ip), vehicle: other) is reported as 6 of 6 and the survivor count (dose: 175.0 mg/kg/injection, schedule: Q01DX Z (ip), vehicle: other) is reported as 5 of 6.

For `O=C(/C=C\c1ccccc1)C(=O)/C=C/c1ccccc1`, the survivor count (dose: 100.0 mg/kg/injection, schedule: Q01DX009 (ip), vehicle: other) was 6 of 6, the survivor count (dose: 200.0 mg/kg/injection, schedule: Q01DX001 (ip), vehicle: other) was 6 of 6 and the survivor count [3] was 6 of 6.

In the case of `OCC1OC(n2ccc3cncnc32)C(O)C1O` (configuration not stated), the survivor count (dose: 80.0 mg/kg/injection, schedule: Q01DX001 (ip), vehicle: saline) is reported as 0 of 4, the survivor count (dose: 100.0 mg/kg/injection, schedule: Q01DX001 (ip), vehicle: saline) is reported as 2 of 4 and the survivor count (dose: 200.0 mg/kg/injection, schedule: Q01DX001 (ip), vehicle: saline) is reported as 0 of 4. For the same molecule, the survivor count (dose: 400.0 mg/kg/injection, schedule: Q01DX001 (ip), vehicle: saline) was 0 of 4.

`COc1cccc(/C=N\N=C\c2cccc(OC)c2O)c1O` was tested, and the survivor count (dose: 100.0 mg/kg/injection, schedule: Q01DX001 (ip), vehicle: saline with Tween-80) was 6 of 6.

With `O=P(NN1CCCCC1)(NN1CCCCC1)c1ccccc1` the survivor count (dose: 400.0 mg/kg/injection, schedule: Q01DX009 (ip), vehicle: carboxymethylcellulose (CMC)) was 0 of 6.

`Nc1ncnc2c1ncn2C(/C=N/Nc1ccccc1)OC(/C=N\Nc1ccccc1)CO` (configuration not stated) was tested, and the survivor count [3] was 1 of 6.

For `CCCC(C#N)(c1ccccc1)c1ccccc1`, the survivor count [4] was 2 of 6.

With `C[n+]1cn(CCCl)c2ccccc21` the survivor count (dose: 100.0 mg/kg/injection, schedule: Q01DX Z (ip), vehicle: saline) was 2 of 6 and the survivor count (dose: 300.0 mg/kg/injection, schedule: Q01DX Z (ip), vehicle: saline) was 0 of 6.

For `c1ccc(C(c2ccccc2)[Si](c2ccccc2)(C(c2ccccc2)c2ccccc2)C(c2ccccc2)c2ccccc2)cc1`, the survivor count (dose: 150.0 mg/kg/injection, schedule: Q01DX009 (ip), vehicle: Klucel (hydroxypropylcellulose) (HPC)) was 6 of 6.

With `CCCCCCCCCCCCCCCC(=O)NCC[N+](CC)(CC)Cc1ccc(C[N+](CC)(CC)CCNC(=O)CCCCCCCCCCCCCCC)cc1` the survivor count (dose: 150.0 mg/kg/injection, schedule: Q01DX001 (ip), vehicle: saline) was 2 of 6 and the survivor count (dose: 300.0 mg/kg/injection, schedule: Q01DX001 (ip), vehicle: saline) was 0 of 6.

With `CC(=O)CC(=O)C(F)(F)F.[O]=[U]=[O]` the survivor count (dose: 12.5 mg/kg/injection, schedule: Q01DX009 (ip), vehicle: gum acacia) was 3 of 3, the survivor count (dose: 25.0 mg/kg/injection, schedule: Q01DX005 (ip), vehicle: gum acacia) was 3 of 3 and the survivor count (dose: 25.0 mg/kg/injection, schedule: Q01DX009 (ip), vehicle: gum acacia) was 2 of 3. The survivor count (dose: 50.0 mg/kg/injection, schedule: Q04DX002 (ip), vehicle: gum acacia) was 1 of 3, the survivor count (dose: 100.0 mg/kg/injection, schedule: Q04DX002 (ip), vehicle: gum acacia) was 0 of 3 and the survivor count (dose: 200.0 mg/kg/injection, schedule: Q04DX002 (ip), vehicle: gum acacia) was 0 of 3. The survivor count (dose: 400.0 mg/kg/injection, schedule: Q04DX002 (ip), vehicle: gum acacia) was 0 of 3.

`Cc1ccc(/C(=N\N=C(N)N)C2CC2)cc1` was tested, and the survivor count (dose: 420.0 mg/kg/injection, schedule: Q01DX Z (ip), vehicle: methylcellulose (MC)) was 0 of 6, the survivor count (dose: 600.0 mg/kg/injection, schedule: Q01DX Z (ip), vehicle: methylcellulose (MC)) was 0 of 6 and the survivor count (dose: 960.0 mg/kg/injection, schedule: Q01DX Z (oral), vehicle: methylcellulose (MC)) was 3 of 6.

In the case of `C=C(Br)CNC(=O)Nc1ccccn1`, the survivor count [4] is reported as 0 of 6.

In the case of `Cc1c2oc3c(C)ccc(C(=O)OCCN4CCOCC4)c3nc-2c(C(=O)OCCN2CCOCC2)c(N)c1=O`, the survivor count (dose: 400.0 mg/kg/injection, schedule: Q04DX002 (ip), vehicle: saline) is reported as 0 of 3.

In the case of `CCCCC(CC)COP(=O)(CC(CC)CCCC)OCC(CC)CCCC` (configuration not stated), the survivor count (dose: 200.0 mg/kg/injection, schedule: Q01DX009 (ip), vehicle: saline) is reported as 4 of 6.

For `CCOC(=O)N1CCN(C(=S)[S-])CC1.CCOC(=O)N1CCN(C(=S)[S-])CC1.[Zn]`, the survivor count (dose: 75.0 mg/kg/injection, schedule: Q01DX001 (ip), vehicle: saline) was 6 of 6.

With `CC[CH2][Sn]([CH2]CC)([O]S(C)(=O)=O)[O]S(C)(=O)=O` the survivor count (dose: 6.25 mg/kg/injection, schedule: Q01DX009 (ip), vehicle: Klucel (hydroxypropylcellulose) (HPC)) was 1 of 3, the survivor count (dose: 12.5 mg/kg/injection, schedule: Q01DX009 (ip), vehicle: Klucel (hydroxypropylcellulose) (HPC)) was 0 of 3 and the survivor count (dose: 25.0 mg/kg/injection, schedule: Q01DX009 (ip), vehicle: Klucel (hydroxypropylcellulose) (HPC)) was 0 of 3. For the same molecule, the survivor count (dose: 50.0 mg/kg/injection, schedule: Q01DX009 (ip), vehicle: Klucel (hydroxypropylcellulose) (HPC)) was 0 of 3, the survivor count [5] was 0 of 3 and 0 of 6 and the survivor count (dose: 200.0 mg/kg/injection, schedule: Q01DX009 (ip), vehicle: Klucel (hydroxypropylcellulose) (HPC)) was 0 of 6. For the same molecule, the survivor count [4] was 0 of 6.

`Cn1ncc2c1C1(C)CCC2C1(C)C` (configuration not stated) was tested, and the survivor count [5] was 3 of 3 and the survivor count [2] was 0 of 6.

In the case of `O=NN1C(=O)C2CC3CC(C2)CC1C3`, the survivor count (dose: 100.0 mg/kg/injection, schedule: Q04DX003 (ip), vehicle: alcohol) is reported as 0 of 6, the survivor count (dose: 200.0 mg/kg/injection, schedule: Q04DX003 (ip), vehicle: alcohol) is reported as 2 of 6 and the survivor count (dose: 400.0 mg/kg/injection, schedule: Q04DX003 (ip), vehicle: alcohol) is reported as 0 of 6.
